Measured data: PubChem BioAssay AID504774 (Drosophila RNAi Screening Center, 2011)
Assay: 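Knock-downs that shift viability of MMS-exposed cells relative to untreated ones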 (primary screen). System: Drosophila Kc167 cells. Reagent: long dsRNA against Drosophila genes, about 0.25 µg dsRNA per well. Timing: about 6 days: 3 days knock-down, then 3 days with or without MMS. Treatment: methyl methanesulphonate 0.004% (w/v) for 3 days after knock-down. Detection: 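Viability in wells given MMS, read as ATP luminescence, normalised by quantiles plate by plate and averaged across replicates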. Direction: mean viability with MMS: higher = more surviving cells after MMS.
The screen tested about 23,000 reagents; below is an unselected part of those with a known target gene and a result. 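Values are quantile-normalised luminescence on an arbitrary scale; higher means more cells surviving MMS.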 Names joined by + are all predicted targets of the reagent. Further read-outs or replicates are left out here.

mean viability with MMS, by target and reagent
spri: DRSC17846 3.26e6; DRSC17984 3.53e6; DRSC17985 3.64e6; DRSC17986 3.74e6; DRSC17988 3.49e6; DRSC17989 3.46e6; DRSC22927 3.48e6
CCHa2: DRSC14835 3.81e6
CG42717: DRSC09411 3.75e6
CG10139: DRSC05972 3.36e6
CG8850: DRSC07287 3.80e6
CG14431: DRSC17925 3.43e6
Cyp317a1: DRSC07366 3.50e6
CG7227: DRSC03032 3.53e6
AlaRS: DRSC01851 3.41e6
CG15605: DRSC06558 3.66e6
Irbp18: DRSC10612 3.41e6
CG5418: DRSC02857 3.59e6
Galphaq: DRSC07432 3.64e6
Snap24: DRSC16864 3.46e6
beta'COP: DRSC03492 2.97e6
Arr1: DRSC01867 3.47e6
CG11638: DRSC18167 3.72e6; DRSC18640 3.76e6
Kua: DRSC02100 3.72e6
CG14658: DRSC12244 3.26e6
CG3698: DRSC11749 3.58e6
Rexo5: DRSC10981 3.43e6
CG14855: DRSC14979 3.74e6
CG8142: DRSC20086 3.78e6
CG1077: DRSC12146 3.63e6
Ipp: DRSC16718 3.53e6
CG12547: DRSC07759 3.62e6
FoxL1: DRSC08717 3.37e6
Ant2: DRSC19330 3.54e6
bip1: DRSC11327 3.48e6
CG11342: DRSC08175 3.42e6
CG6661: DRSC10687 3.51e6
Polr2G: DRSC16068 3.06e6
cnn: DRSC05422 3.59e6; DRSC07596 3.52e6
Cks30A: DRSC03292 3.59e6
CG9737: DRSC16550 3.63e6
E(spl)m8-HLH: DRSC16654 3.62e6
betaggt-I: DRSC03494 3.51e6
Gip: DRSC18667 1.85e6
rnh1: DRSC07673 3.48e6
CG6985: DRSC16164 3.65e6
rost: DRSC03603 3.64e6
CG34168: DRSC01938 3.59e6
Nt5a: DRSC08561 3.73e6
CG42820 + CG42819: DRSC02264 3.49e6; DRSC02265 3.70e6
CG13029: DRSC09909 3.49e6
app: DRSC09159 3.51e6; DRSC10246 3.41e6; DRSC10526 3.45e6
CG10317: DRSC14229 3.51e6
GIIIspla2: DRSC18094 3.57e6
Or65b: DRSC08809 3.61e6
CG32511 (retired record): DRSC20697 1.94e6
Mec2: DRSC20054 3.61e6
CG13898: DRSC08368 3.63e6
CG13392: DRSC02262 3.68e6
Menl-2 + Menl-1: DRSC07469 3.93e6; DRSC07470 3.66e6
E(spl)m5-HLH: DRSC16695 3.57e6
Tektin-C: DRSC09741 3.22e6

Records above whose target name starts with G or g:
mean viability with MMS, by target and reagent
Galphaq: DRSC07432 3.64e6
Gip: DRSC18667 1.85e6
GIIIspla2: DRSC18094 3.57e6
